In paper doi:10.1101/2021.02.19.431861 one finds binding data, which are given here for five molecules.

Chains of the proteins cited; added tags and fusions are not shown. Lines headed by an entry give the natural chain unless they say otherwise; changes in a name come on top.
UniProt Q9BXW4: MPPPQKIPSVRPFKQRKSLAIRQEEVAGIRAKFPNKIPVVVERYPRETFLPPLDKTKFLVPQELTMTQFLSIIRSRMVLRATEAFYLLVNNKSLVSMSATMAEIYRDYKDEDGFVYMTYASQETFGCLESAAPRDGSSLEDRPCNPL
UniProt Q14457: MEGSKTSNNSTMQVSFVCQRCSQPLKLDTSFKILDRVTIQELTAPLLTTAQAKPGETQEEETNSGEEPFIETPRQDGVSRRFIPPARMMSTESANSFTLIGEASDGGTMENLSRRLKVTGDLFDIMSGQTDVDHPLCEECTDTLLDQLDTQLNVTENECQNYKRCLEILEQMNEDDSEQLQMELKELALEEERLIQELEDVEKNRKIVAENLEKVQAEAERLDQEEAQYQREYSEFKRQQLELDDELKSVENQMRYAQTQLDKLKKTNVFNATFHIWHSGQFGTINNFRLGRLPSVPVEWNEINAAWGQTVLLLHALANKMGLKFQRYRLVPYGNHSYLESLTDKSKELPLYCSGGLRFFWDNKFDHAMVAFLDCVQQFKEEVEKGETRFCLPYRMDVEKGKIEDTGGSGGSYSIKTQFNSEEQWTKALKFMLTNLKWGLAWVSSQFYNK
UniProt Q8TDY2: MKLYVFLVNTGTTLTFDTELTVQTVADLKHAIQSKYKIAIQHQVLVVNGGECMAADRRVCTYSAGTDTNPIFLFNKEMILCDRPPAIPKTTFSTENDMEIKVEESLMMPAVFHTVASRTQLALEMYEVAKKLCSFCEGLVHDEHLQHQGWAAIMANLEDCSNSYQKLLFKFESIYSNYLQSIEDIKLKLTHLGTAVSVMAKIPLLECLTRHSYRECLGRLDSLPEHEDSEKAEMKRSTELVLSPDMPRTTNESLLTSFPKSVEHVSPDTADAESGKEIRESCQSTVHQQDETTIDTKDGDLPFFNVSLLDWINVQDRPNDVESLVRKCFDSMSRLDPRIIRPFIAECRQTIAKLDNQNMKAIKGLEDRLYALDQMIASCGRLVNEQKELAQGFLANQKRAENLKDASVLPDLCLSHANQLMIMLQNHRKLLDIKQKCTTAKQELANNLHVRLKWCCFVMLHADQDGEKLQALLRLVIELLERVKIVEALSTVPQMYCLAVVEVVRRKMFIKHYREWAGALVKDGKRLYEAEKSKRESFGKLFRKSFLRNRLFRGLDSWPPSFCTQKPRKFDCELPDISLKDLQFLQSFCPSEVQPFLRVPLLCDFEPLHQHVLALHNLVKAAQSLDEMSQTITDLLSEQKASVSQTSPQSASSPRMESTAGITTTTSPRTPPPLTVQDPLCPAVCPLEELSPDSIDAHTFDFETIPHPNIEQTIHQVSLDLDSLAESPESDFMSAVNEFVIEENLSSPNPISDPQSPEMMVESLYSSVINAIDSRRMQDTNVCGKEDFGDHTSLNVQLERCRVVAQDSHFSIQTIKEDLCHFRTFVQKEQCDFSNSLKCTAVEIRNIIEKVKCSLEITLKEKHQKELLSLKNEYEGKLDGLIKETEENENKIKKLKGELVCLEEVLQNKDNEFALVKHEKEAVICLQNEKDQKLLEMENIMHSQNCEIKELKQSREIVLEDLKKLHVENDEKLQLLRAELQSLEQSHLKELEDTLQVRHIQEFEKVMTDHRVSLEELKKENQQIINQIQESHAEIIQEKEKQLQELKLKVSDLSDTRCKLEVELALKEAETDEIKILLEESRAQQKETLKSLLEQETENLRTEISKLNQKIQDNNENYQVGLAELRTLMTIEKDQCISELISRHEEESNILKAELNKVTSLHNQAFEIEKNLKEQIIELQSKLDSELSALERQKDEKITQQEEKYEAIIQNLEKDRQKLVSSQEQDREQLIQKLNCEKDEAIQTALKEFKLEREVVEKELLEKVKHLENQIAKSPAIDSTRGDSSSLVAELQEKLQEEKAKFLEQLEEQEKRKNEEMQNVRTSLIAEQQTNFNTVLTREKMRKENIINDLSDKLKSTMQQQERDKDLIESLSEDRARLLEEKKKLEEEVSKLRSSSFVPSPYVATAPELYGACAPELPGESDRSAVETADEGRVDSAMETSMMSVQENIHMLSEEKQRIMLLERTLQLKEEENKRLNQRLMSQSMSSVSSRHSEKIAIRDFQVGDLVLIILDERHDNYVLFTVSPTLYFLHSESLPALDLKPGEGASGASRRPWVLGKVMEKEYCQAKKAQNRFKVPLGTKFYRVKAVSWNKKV
UniProt O00443: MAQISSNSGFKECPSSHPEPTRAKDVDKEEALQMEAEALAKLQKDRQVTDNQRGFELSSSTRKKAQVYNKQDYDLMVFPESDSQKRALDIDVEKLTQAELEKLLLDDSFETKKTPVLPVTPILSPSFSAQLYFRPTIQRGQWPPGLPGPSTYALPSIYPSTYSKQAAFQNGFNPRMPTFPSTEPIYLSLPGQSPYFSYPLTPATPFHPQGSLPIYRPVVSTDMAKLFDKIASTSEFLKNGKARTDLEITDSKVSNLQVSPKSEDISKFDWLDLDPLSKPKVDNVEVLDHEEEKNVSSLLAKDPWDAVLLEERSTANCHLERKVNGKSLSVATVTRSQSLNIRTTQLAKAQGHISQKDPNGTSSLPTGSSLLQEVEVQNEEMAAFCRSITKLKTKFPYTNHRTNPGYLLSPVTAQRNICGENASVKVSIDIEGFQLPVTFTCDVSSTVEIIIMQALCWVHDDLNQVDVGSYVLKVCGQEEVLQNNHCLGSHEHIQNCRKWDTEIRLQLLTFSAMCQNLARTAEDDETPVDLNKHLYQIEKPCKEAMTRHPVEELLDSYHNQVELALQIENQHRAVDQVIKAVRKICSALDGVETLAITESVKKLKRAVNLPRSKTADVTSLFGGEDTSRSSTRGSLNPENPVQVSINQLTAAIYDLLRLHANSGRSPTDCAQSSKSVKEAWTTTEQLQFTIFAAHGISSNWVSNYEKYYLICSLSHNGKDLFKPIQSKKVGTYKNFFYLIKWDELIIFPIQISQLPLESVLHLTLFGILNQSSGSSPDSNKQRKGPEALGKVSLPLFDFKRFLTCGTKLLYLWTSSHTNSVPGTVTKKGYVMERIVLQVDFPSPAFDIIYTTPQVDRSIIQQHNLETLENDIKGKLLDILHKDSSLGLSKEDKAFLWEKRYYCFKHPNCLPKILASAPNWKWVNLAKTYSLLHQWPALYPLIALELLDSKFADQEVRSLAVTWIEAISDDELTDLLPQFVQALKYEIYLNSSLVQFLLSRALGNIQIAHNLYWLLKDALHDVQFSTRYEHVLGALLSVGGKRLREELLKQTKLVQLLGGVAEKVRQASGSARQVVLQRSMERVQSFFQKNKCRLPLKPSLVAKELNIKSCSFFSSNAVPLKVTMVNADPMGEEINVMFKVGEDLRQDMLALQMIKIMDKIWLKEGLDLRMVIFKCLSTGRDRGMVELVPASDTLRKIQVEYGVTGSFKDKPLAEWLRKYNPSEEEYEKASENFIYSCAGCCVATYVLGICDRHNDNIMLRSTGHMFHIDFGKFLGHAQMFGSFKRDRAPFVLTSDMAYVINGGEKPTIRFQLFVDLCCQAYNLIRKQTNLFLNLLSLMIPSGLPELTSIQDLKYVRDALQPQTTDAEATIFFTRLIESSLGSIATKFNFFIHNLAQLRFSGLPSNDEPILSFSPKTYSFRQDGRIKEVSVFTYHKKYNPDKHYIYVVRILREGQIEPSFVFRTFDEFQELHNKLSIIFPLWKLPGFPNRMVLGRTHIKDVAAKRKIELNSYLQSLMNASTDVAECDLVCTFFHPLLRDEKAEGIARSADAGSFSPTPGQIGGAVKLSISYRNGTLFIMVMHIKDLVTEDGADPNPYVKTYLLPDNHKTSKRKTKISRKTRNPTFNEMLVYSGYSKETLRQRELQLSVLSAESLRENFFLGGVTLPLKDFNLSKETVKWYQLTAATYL

No constants are given. Whether binding was seen depends on the method and setting. Binding seen in cells or lysates may run through a third protein. Binding calls can cover weak binding; strength is not graded here.

Test [1] addresses FLAG-tagged LC3C wild type (UniProt Q9BXW4). In words: co-IP.
Test [2] concerns the target LC3C G126A mutant (UniProt Q9BXW4). In words: co-IP.

On to “BECN1 (endogenous) (from UniProt Q14457 1-450)”, for which, in test [1], the binding result was “binds”. For “FIP200 (endogenous) (from UniProt Q8TDY2 1-1594)”, the binding entry in test [1] and in test [2] was “binds” throughout. With “PIK3C2A (endogenous) (from UniProt O00443 1-1686)”, the binding entry in test [2] is listed as “binds”.

B1: ULK3 (endogenous) (protein, UniProt Q6PHR2 1-472)
chain: MAGPGWGPPRLDGFILTERLGSGTYATVYKAYAKKDTREVVAIKCVAKKSLNKASVENLLTEIEILKGIRHPHIVQLKDFQWDSDNIYLIMEFCAGGDLSRFIHTRRILPEKVARVFMQQLASALQFLHERNISHLDLKPQNILLSSLEKPHLKLADFGFAQHMSPWDEKHVLRGSPLYMAPEMVCQRQYDARVDLWSMGVILYEALFGQPPFASRSFSELEEKIRSNRVIELPLRPLLSRDCRDLLQRLLERDPSRRISFQDFFAHPWVDLEHMPSGESLGRATALVVQAVKKDQEGDSAAALSLYCKALDFFVPALHYEVDAQRKEAIKAKVGQYVSRAEELKAIVSSSNQALLRQGTSARDLLREMARDKPRLLAALEVASAAMAKEEAAGGEQDALDLYQHSLGELLLLLAAEPPGRRRELLHTEVQNLMARAEYLKEQVKMRESRWEADTLDKEGLSESVRSSCTLQ
On to B1, for which the binding entry in test [2] was “binds”.

B2: RUBCN (endogenous) (protein, UniProt Q92622 1-972)
chain: MRPEGAGMELGGGEERLPEESRREHWQLLGNLKTTVEGLVSTNSPNVWSKYGGLERLCRDMQSILYHGLIRDQACRRQTDYWQFVKDIRWLSPHSALHVEKFISVHENDQSSADGASERAVAELWLQHSLQYHCLSAQLRPLLGDRQYIRKFYTDAAFLLSDAHVTAMLQCLEAVEQNNPRLLAQIDASMFARKHESPLLVTKSQSLTALPSSTYTPPNSYAQHSYFGSFSSLHQSVPNNGSERRSTSFPLSGPPRKPQESRGHVSPAEDQTIQAPPVSVSALARDSPLTPNEMSSSTLTSPIEASWVSSQNDSPGDASEGPEYLAIGNLDPRGRTASCQSHSSNAESSSSNLFSSSSSQKPDSAASSLGDQEGGGESQLSSVLRRSSFSEGQTLTVTSGAKKSHIRSHSDTSIASRGAPESCNDKAKLRGPLPYSGQSSEVSTPSSLYMEYEGGRYLCSGEGMFRRPSEGQSLISYLSEQDFGSCADLEKENAHFSISESLIAAIELMKCNMMSQCLEEEEVEEEDSDREIQELKQKIRLRRQQIRTKNLLPMYQEAEHGSFRVTSSSSQFSSRDSAQLSDSGSADEVDEFEIQDADIRRNTASSSKSFVSSQSFSHCFLHSTSAEAVAMGLLKQFEGMQLPAASELEWLVPEHDAPQKLLPIPDSLPISPDDGQHADIYKLRIRVRGNLEWAPPRPQIIFNVHPAPTRKIAVAKQNYRCAGCGIRTDPDYIKRLRYCEYLGKYFCQCCHENAQMAIPSRVLRKWDFSKYYVSNFSKDLLIKIWNDPLFNVQDINSALYRKVKLLNQVRLLRVQLCHMKNMFKTCRLAKELLDSFDTVPGHLTEDLHLYSLNDLTATRKGELGPRLAELTRAGATHVERCMLCQAKGFICEFCQNEDDIIFPFELHKCRTCEECKACYHKACFKSGSCPRCERLQARREALARQSLESYLSDYEEEPAEALALEAAVLEAT
Regarding B2, the binding entry in test [2] is “binds”.
